Experimental data from the supplement of paper PMC11637464.
Counter-ions that a name gives are not always drawn. This is one part of the list. Many values rest on one well or one pass, so single values are uncertain.

Test system: primary mouse Muller glia with Ascl1 overexpression
Test: Neuronal cell count fold change vs Ascl1-only control (log2 fold change); higher = more neurogenesis
Experimental: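 Primary P11 mouse Muller glia carrying dox-inducible Ascl1 were treated with Tocriscreen Stem Cell Library compounds at 0.1, 1 or 10 uM together with doxycycline for 5 days, then profiled by sci-Plex hashing and sci-RNA-seq2. Cells were annotated by marker genes and cell-type counts per well were size-factor adjusted. Read-outs are the log2 fold change of Neuronal (NeuPre + bipolar) and ProL cell counts versus the Ascl1-only control wells of the same collection day, plus the raw number of recovered cells per well. There is one well per dose, and wells with fewer than 20 cells were discarded.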

Row | Compound | Neuronal cell count fold change (0.1 µM) | Neuronal cell count fold change (1 µM) | Neuronal cell count fold change (10 µM)
1 | O=c1n(CCCN2CCN(c3cccc(Cl)c3)CC2)nc2ccccn12 [Trazodone hydrochloride] (collection day: 2) | 0.107 | 0 | 0.206
2 | O=c1[nH]c(=O)n([C@H]2C[C@H](O)[C@@H](CO)O2)cc1Br (collection day: 2) | -0.7 | -0.531 | -1.12
3 | Nc1nc(N)c2nc(-c3cccc(Cl)c3)c(N)nc2n1 [Epiblastin A] (collection day: 2) | 0 | -0.115 | -0.115
4 | C[S+]([O-])c1ccc(-c2nc(-c3ccc(F)cc3)c(-c3ccncc3)[nH]2)cc1 (configuration not stated) (collection day: 1) | 0.0566 | -1.18 | -1.64
5 | CC(=O)N(C)c1cccc(-c2ccc3nnc(C)n3n2)c1 (collection day: 2) | -0.7 | 0 | -0.241
6 | Nc1ncn([C@H]2C[C@H](O)[C@@H](CO)O2)c(=O)n1 [Decitabine] (collection day: 1) | -0.474 | -0.184 | -0.556
7 | O=C(NC1CCOCC1)c1ccc(-c2cc(-c3c[nH]nc3-c3ccccn3)ccn2)cc1 (collection day: 2) | 0.547 | 0.387 | 0.759
8 | C[C@@H](N)[C@H]1CC[C@H](C(=O)Nc2ccncc2)CC1 (collection day: 1) | -0.644 |  | 
9 | Oc1nc(-c2ccc(C(F)(F)F)cc2)nc2c1CSCC2 (collection day: 2) | -0.379 | -0.7 | -0.379
10 | CC(C)(C)c1ccc(S(=O)(=O)NCc2ccc(C(=O)Nc3cccnc3)cc2)cc1 (collection day: 2) | -0.7 | -0.531 | 
11 | CC(=O)Nc1ccc(C(=O)Nc2ccccc2N)cc1 (collection day: 1) | -0.644 | -0.943 | -4.64
12 | O=C(O)c1ccc(S(=O)(=O)NC2CCCCC2)cc1 (collection day: 2) | 0.107 | -0.241 | -0.379
13 | COc1cc2c(cc1-c1c(C)noc1C)ncc1[nH]c(=O)n([C@H](C)c3ccccn3)c12 [I-BET 151 dihydrochloride] (collection day: 2) | -1.12 | -3.7 | -2.12
14 | CC(ONC(=O)c1cc(C(F)(F)F)cc(C(F)(F)F)c1)C(=O)Nc1ccc(Cl)cc1 (configuration not stated) (collection day: 2) | 0.107 | -0.115 | 
15 | NCCNS(=O)(=O)c1ccc(Cl)c2ccncc12 [CKI 7 dihydrochloride] (collection day: 2) | 0.206 | 0.206 | -0.115
16 | O=C(Nc1cccc2cccnc12)c1ccc(N2C(=O)[C@@H]3[C@H](C2=O)[C@@H]2C=C[C@H]3C2)cc1 [endo-IWR 1] (collection day: 2) |  |  | -0.379

Complete entries from above:
C[C@@H](N)[C@H]1CC[C@H](C(=O)Nc2ccncc2)CC1 (collection day: 1) in the list: Neuronal cell count fold change (0.1 µM): -0.644
CC(ONC(=O)c1cc(C(F)(F)F)cc(C(F)(F)F)c1)C(=O)Nc1ccc(Cl)cc1 (configuration not stated) (collection day: 2) in the list: Neuronal cell count fold change (0.1 µM): 0.107; Neuronal cell count fold change (1 µM): -0.115
